Drawing on article PMC8297976, this text covers binding for two substances.

The chains behind the UniProt entries cited, without tags or fusion partners.
UniProt Q1W668: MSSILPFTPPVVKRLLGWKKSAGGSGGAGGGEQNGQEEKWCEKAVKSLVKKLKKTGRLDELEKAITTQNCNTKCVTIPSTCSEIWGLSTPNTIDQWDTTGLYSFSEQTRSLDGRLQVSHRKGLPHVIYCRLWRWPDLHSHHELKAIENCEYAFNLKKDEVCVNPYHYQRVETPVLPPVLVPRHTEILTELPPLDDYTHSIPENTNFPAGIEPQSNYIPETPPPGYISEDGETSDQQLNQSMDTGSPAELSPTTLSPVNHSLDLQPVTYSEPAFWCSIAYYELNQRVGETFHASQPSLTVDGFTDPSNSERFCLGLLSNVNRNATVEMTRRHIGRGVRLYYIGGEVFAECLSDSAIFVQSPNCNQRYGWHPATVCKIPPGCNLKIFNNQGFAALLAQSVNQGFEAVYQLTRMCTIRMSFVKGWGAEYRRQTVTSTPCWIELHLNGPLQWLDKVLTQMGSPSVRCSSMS
UniProt F1MUZ3: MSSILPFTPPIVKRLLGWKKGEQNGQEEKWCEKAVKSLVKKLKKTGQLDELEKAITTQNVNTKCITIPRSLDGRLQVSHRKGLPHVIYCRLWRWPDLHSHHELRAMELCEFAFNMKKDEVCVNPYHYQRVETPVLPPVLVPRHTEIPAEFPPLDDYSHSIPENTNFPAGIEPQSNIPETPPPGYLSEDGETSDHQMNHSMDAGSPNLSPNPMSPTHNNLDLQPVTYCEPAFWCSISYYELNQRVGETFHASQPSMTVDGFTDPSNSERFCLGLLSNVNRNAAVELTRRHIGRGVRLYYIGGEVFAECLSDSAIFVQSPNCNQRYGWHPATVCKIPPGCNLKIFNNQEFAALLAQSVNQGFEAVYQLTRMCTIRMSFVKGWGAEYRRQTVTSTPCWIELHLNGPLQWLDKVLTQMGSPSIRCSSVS

This test deals with T1, Ufm1 binding protein 1 (Ufbp1) (bovine (endogenous in liver tissue of dairy cows)) (UniProt Q1LZB0).
T1 sequence: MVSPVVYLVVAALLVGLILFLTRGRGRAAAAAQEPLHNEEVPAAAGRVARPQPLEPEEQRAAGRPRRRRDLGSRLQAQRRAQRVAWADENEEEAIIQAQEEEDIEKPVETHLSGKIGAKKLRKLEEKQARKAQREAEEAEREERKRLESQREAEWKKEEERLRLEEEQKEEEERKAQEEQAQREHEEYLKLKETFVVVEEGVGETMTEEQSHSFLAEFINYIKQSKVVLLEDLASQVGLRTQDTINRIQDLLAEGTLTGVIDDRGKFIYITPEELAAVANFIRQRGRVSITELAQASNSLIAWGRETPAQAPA
Put plainly: co-IP; endogenous proteins; lysates of bovine normal liver tissue incubated with the antibody at 4°C overnight, then protein A/G plus agarose beads for 4 h; immunoblotting; IgG as negative control.

These are yes or no findings as the source states them, for the method shown. In cells and extracts the contact can be indirect. Some binding calls cover weakened binding; strength is not graded here.

On to Smad2 (from UniProt Q1W668 1-467), for which the binding entry is on record as “no binding”.

In the case of Smad3 (from UniProt F1MUZ3 1-425), the binding result is reported as “binds”.
